Measured values as given in the supplement of paper PMC4604168 (melanoma cell lines).
The other results are listed elsewhere or left out. Single values are uncertain, as repeats are few or missing.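 Imaging used 1,536-well plates; nuclei positive for cleaved PARP by antibody were divided by total DNA-stained nuclei to yield the apoptosis fraction. Doses for screening kept most cells viable, and cell lines differ markedly in resting and induced cleaved-PARP levels.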

What was measured:
Experiment in all cases: cleaved PARP positive nuclei fraction relative to DMSO control; melanoma cells; higher = more apoptosis
Details in all cases: library dose: low library concentration; 72 h
MZ2-MEL = test system: MZ2-MEL
MeWo = test system: MeWo
RPMI7951 = test system: RPMI7951
RVH-421 = test system: RVH-421
SkMel28 = test system: SkMel28
SkMel2 = test system: SkMel2
SkMel30 = test system: SkMel30
UACC62 = test system: UACC62

| Structure (SMILES) | cleaved PARP positive nuclei fraction (MZ2-MEL) [%] | cleaved PARP positive nuclei fraction (MeWo) [%] | cleaved PARP positive nuclei fraction (RPMI7951) [%] | cleaved PARP positive nuclei fraction (RVH-421) [%] | cleaved PARP positive nuclei fraction (SkMel28) [%] | cleaved PARP positive nuclei fraction (SkMel2) [%] | cleaved PARP positive nuclei fraction (SkMel30) [%] | cleaved PARP positive nuclei fraction (UACC62) [%] |
| --- | --- | --- | --- | --- | --- | --- | --- | --- |
| Cn1sc(=O)n(Cc2ccccc2)c1=O + C[C@@H](Oc1cc(-c2cnn(C3CCNCC3)c2)cnc1N)c1c(Cl)ccc(F)c1Cl [Crizotinib] (first compound 0.4 µM, partner dose 0.2 µM) | 38.6 | 131 | 124 | 90.7 | 39 | 42 | 32.1 | 144 |
| CCN(CC)CCNC(=O)c1c(C)[nH]c(/C=C2\C(=O)Nc3ccc(F)cc32)c1C [sunitinib] + CNC(=O)c1cc(Oc2ccc(NC(=O)Nc3ccc(Cl)c(C(F)(F)F)c3)cc2)ccn1 [sorafenib] (first compound 0.4 µM, partner dose 0.4 µM) | 81.7 | 54.7 | 82.8 | 305 | 82.3 | 84.1 | 88.4 | 190 |
| C[C@]1(O)C[C@@H](c2nc(-c3ccc4ccc(-c5ccccc5)nc4c3)c3c(N)nccn32)C1 + Nc1ncn([C@H]2C[C@H](O)[C@@H](CO)O2)c(=O)n1 [decitabine] (first compound 0.4 µM, partner dose 0.1 µM) | 43.2 | 167 | 71.2 | 150 | 62.9 | 53.9 | 140 | 87.7 |
| Cn1sc(=O)n(Cc2ccccc2)c1=O + Nc1ncn([C@H]2C[C@H](O)[C@@H](CO)O2)c(=O)n1 [decitabine] (first compound 0.4 µM, partner dose 0.1 µM) | 135 | 59.2 | 115 | 176 | 162 | 85.4 | 74.6 | 109 |
| NC(=O)c1ccc(N(C(N)=O)c2c(F)cccc2F)nc1-c1ccc(F)cc1F + O=C(O)[C@@H]1[O][Sb](=[O])([O][Sb]2(=[O])[O][C@H]([C@H](O)CO)[C@H](O)[C@H](C(=O)O)[O]2)[O][C@H]([C@H](O)CO)[C@@H]1O [stibogluconate] (first compound 0.4 µM, partner dose 2 µM) | 38.2 | 66.7 | 103 | 34.3 | 67.3 | 46.6 | 15.6 | 57.4 |
| CCN(CC)CCNC(=O)c1c(C)[nH]c(/C=C2\C(=O)Nc3ccc(F)cc32)c1C [sunitinib] + NC1(c2ccc(-c3nc4ccn5c(=O)[nH]nc5c4cc3-c3ccccc3)cc2)CCC1 [MK2206] (first compound 0.4 µM, partner dose 0.4 µM) | 220 | 75 | 211 | 28.4 | 89.6 | 83 | 52 | 273 |
| CC1(C)CCC(c2ccc(Cl)cc2)=C(CN2CCN(c3ccc(C(=O)NS(=O)(=O)c4ccc(N[C@H](CCN5CCOCC5)CSc5ccccc5)c(S(=O)(=O)C(F)(F)F)c4)cc3)CC2)C1 + C[C@]1(O)C[C@@H](c2nc(-c3ccc4ccc(-c5ccccc5)nc4c3)c3c(N)nccn32)C1 [OSI906] (first compound 0.4 µM, partner dose 0.4 µM) | 270 | 527 | 136 | 179 | 77.6 | 139 | 95 | 204 |
| NC(=O)c1ccc(N(C(N)=O)c2c(F)cccc2F)nc1-c1ccc(F)cc1F + COc1ccc(C2=N[C@@H](c3ccc(Cl)cc3)[C@@H](c3ccc(Cl)cc3)N2C(=O)N2CCNC(=O)C2)c(OC(C)C)c1 [Nutlin-3] (first compound 0.4 µM, partner dose 0.1 µM) | 29.9 | 208 | 33.3 | 67 | 20.9 | 190 | 81.1 | 158 |
| Cn1cnc2c(F)c(Nc3ccc(Br)cc3Cl)c(C(=O)NOCCO)cc21 [selumetinib] + CCN(CC)CCNC(=O)c1c(C)[nH]c(/C=C2\C(=O)Nc3ccc(F)cc32)c1C [sunitinib] (first compound 0.015 µM, partner dose 0.4 µM) | 303 | 246 | 68.5 | 71.3 | 124 | 112 | 149 | 309 |
| COc1ccc(C2=N[C@@H](c3ccc(Cl)cc3)[C@@H](c3ccc(Cl)cc3)N2C(=O)N2CCNC(=O)C2)c(OC(C)C)c1 [Nutlin-3] + CC(=O)O[C@@]12CO[C@@H]1C[C@H](O)[C@@]1(C)C(=O)[C@H](O)C3=C(C)[C@@H](OC(=O)[C@H](O)[C@@H](NC(=O)OC(C)(C)C)c4ccccc4)C[C@@](O)([C@@H](OC(=O)c4ccccc4)[C@H]21)C3(C)C [Docetaxel] (first compound 0.1 µM, partner dose 0.0001 µM) | 483 | 500 | 72.4 | 208 | 120 | 420 | 221 | 591 |
| NC(=O)c1ccc(N(C(N)=O)c2c(F)cccc2F)nc1-c1ccc(F)cc1F + C[C@@H](Oc1cc(-c2cnn(C3CCNCC3)c2)cnc1N)c1c(Cl)ccc(F)c1Cl [Crizotinib] (first compound 0.4 µM, partner dose 0.2 µM) | 111 | 96.3 | 84 | 226 | 96 | 29.1 | 58 | 88.7 |
| COc1ccc(C2=N[C@@H](c3ccc(Cl)cc3)[C@@H](c3ccc(Cl)cc3)N2C(=O)N2CCNC(=O)C2)c(OC(C)C)c1 [Nutlin-3] + C=C(c1ccc(C(=O)O)cc1)c1cc2c(cc1C)C(C)(C)CCC2(C)C [Bexarotene] (first compound 0.1 µM, partner dose 2 µM) | 33 | 76.9 | 21.6 | 156 | 546 | 124 | 75.8 | 198 |
| CCN(CC)CCNC(=O)c1c(C)[nH]c(/C=C2\C(=O)Nc3ccc(F)cc32)c1C [sunitinib] + C[C@@H](Oc1cc(-c2cnn(C3CCNCC3)c2)cnc1N)c1c(Cl)ccc(F)c1Cl [Crizotinib] (first compound 0.4 µM, partner dose 0.2 µM) | 126 | 37.2 | 230 | 100 | 81.4 | 116 | 129 | 406 |
| Cn1sc(=O)n(Cc2ccccc2)c1=O + CS(=O)(=O)CCNCc1ccc(-c2ccc3ncnc(Nc4ccc(OCc5cccc(F)c5)c(Cl)c4)c3c2)o1 [lapatinib] (first compound 0.4 µM, partner dose 0.8 µM) | 136 | 192 | 108 | 94.4 | 78.6 | 108 | 57 | 114 |
| CCCCCCCCc1ccc(CCC(N)(CO)CO)cc1 [fingolimod] + C=CCNC1=C2C[C@@H](C)C[C@H](OC)[C@H](O)[C@@H](C)/C=C(\C)[C@H](OC(N)=O)[C@@H](OC)/C=C\C=C(/C)C(=O)NC(=CC1=O)C2=O [Tanespimycin] (first compound 2 µM, partner dose 0.002 µM) | 189 | 65 | 60.6 | 83.7 | 83.3 | 139 | 118 | 80.7 |
| CN(c1ncccc1CNc1nc(Nc2ccc3c(c2)CC(=O)N3)ncc1C(F)(F)F)S(C)(=O)=O + Nc1cccc2c1CN(C1CCC(=O)NC1=O)C2=O [lenalidomide] (first compound 0.08 µM, partner dose 1 µM) | 113 | 99.8 | 70.1 | 81.6 | 77.8 | 45.7 | 47.5 | 97.1 |

| Structure (SMILES) | cleaved PARP positive nuclei fraction (MZ2-MEL) [%] | cleaved PARP positive nuclei fraction (MeWo) [%] | cleaved PARP positive nuclei fraction (RPMI7951) [%] | cleaved PARP positive nuclei fraction (RVH-421) [%] | cleaved PARP positive nuclei fraction (SkMel28) [%] | cleaved PARP positive nuclei fraction (SkMel2) [%] | cleaved PARP positive nuclei fraction (SkMel30) [%] | cleaved PARP positive nuclei fraction (UACC62) [%] |
| --- | --- | --- | --- | --- | --- | --- | --- | --- |
| Cn1sc(=O)n(Cc2ccccc2)c1=O + Cn1c(=O)n(-c2ccc(C(C)(C)C#N)cc2)c2c3cc(-c4cnc5ccccc5c4)ccc3ncc21 [NVP-BEZ235] (first compound 0.4 µM, partner dose 0.004 µM) | 132 | 97.4 | 250 | 249 | 87.2 | 94.1 | 49.6 | 83.4 |
| CCN(CC)CCNC(=O)c1c(C)[nH]c(/C=C2\C(=O)Nc3ccc(F)cc32)c1C [sunitinib] + Nc1ccn([C@@H]2O[C@H](CO)[C@@H](O)C2(F)F)c(=O)n1 [gemcitabine] (first compound 0.4 µM, partner dose 0.0004 µM) | 63.6 | 144 | 171 | 161 | 73.4 | 106 | 27.4 | 77.1 |
| COc1ccc(C2=N[C@@H](c3ccc(Cl)cc3)[C@@H](c3ccc(Cl)cc3)N2C(=O)N2CCNC(=O)C2)c(OC(C)C)c1 [Nutlin-3] + CCN(CC)CCNC(=O)c1c(C)[nH]c(/C=C2\C(=O)Nc3ccc(F)cc32)c1C [sunitinib] (first compound 0.1 µM, partner dose 0.4 µM) | 125 | 186 | 99.6 | 107 | 90.9 | 106 | 89.3 | 102 |
| C[C@@H](N)c1ccc(C(=O)Nc2ccnc3[nH]ccc23)cc1 + Nc1ncn([C@H]2C[C@H](O)[C@@H](CO)O2)c(=O)n1 [decitabine] (first compound 0.4 µM, partner dose 0.1 µM) | 148 | 247 | 222 | 202 | 67.1 | 103 | 154 | 361 |
| Cn1sc(=O)n(Cc2ccccc2)c1=O + C[C@]1(O)C[C@@H](c2nc(-c3ccc4ccc(-c5ccccc5)nc4c3)c3c(N)nccn32)C1 [OSI906] (first compound 0.4 µM, partner dose 0.4 µM) | 111 | 123 | 123 | 52.1 | 84.8 | 134 | 35.6 | 92 |
| C[C@@H](N)c1ccc(C(=O)Nc2ccnc3[nH]ccc23)cc1 + Cc1cc(Nc2cc(N3CCN(C)CC3)nc(/C=C/c3ccccc3)n2)n[nH]1 [ENMD2076] (first compound 0.4 µM, partner dose 0.04 µM) | 145 | 186 | 95.2 | 47.8 | 37.8 | 101 | 60.7 | 238 |
| CS(=O)(=O)c1ccc(C(=O)Nc2ccc(Cl)c(-c3ccccn3)c2)c(Cl)c1 [vismodegib] + Nc1nc(F)nc2c1ncn2[C@@H]1O[C@H](CO)[C@@H](O)[C@@H]1O [fludarabine] (first compound 1 µM, partner dose 0.2 µM) | 94.7 | 551 | 62.5 | 68.3 | 181 | 431 | 1140 | 97.7 |
| NC1(c2ccc(-c3nc4ccn5c(=O)[nH]nc5c4cc3-c3ccccc3)cc2)CCC1 + CNC(=O)c1cc(Oc2ccc(NC(=O)Nc3ccc(Cl)c(C(F)(F)F)c3)cc2)ccn1 [sorafenib] (first compound 0.4 µM, partner dose 0.4 µM) | 70.3 | 143 | 33.7 | 82 | 137 | 49 | 64.9 | 148 |
| CCCCCCCCc1ccc(CCC(N)(CO)CO)cc1 [fingolimod] + Clc1ccc(Nc2nnc(Cc3ccncc3)c3ccccc23)cc1 [vatalanib] (first compound 2 µM, partner dose 2 µM) | 136 | 142 | 182 | 159 | 45.2 | 100 | 55.4 | 113 |
| C[C@@H](N)c1ccc(C(=O)Nc2ccnc3[nH]ccc23)cc1 + Nc1nc(F)nc2c1ncn2[C@@H]1O[C@H](CO)[C@@H](O)[C@@H]1O [fludarabine] (first compound 0.4 µM, partner dose 0.2 µM) | 135 | 2790 | 36 | 43.8 | 399 | 2860 | 732 | 233 |
| CC(=O)O[C@@]12CO[C@@H]1C[C@H](O)[C@@]1(C)C(=O)[C@H](O)C3=C(C)[C@@H](OC(=O)[C@H](O)[C@@H](NC(=O)OC(C)(C)C)c4ccccc4)C[C@@](O)([C@@H](OC(=O)c4ccccc4)[C@H]21)C3(C)C [Docetaxel] + Clc1ccc(Nc2nnc(Cc3ccncc3)c3ccccc23)cc1 [vatalanib] (first compound 0.0001 µM, partner dose 2 µM) | 587 | 475 | 261 | 135 | 550 | 601 | 509 | 749 |
| COc1ccc(C2=N[C@@H](c3ccc(Cl)cc3)[C@@H](c3ccc(Cl)cc3)N2C(=O)N2CCNC(=O)C2)c(OC(C)C)c1 [Nutlin-3] + CN1CCN(c2ccc3nc(-c4c(N)c5c(F)cccc5[nH]c4=O)[nH]c3c2)CC1 [Dovitinib] (first compound 0.1 µM, partner dose 0.1 µM) | 104 | 161 | 133 | 129 | 83.9 | 79.3 | 105 | 128 |
| NC1(c2ccc(-c3nc4ccn5c(=O)[nH]nc5c4cc3-c3ccccc3)cc2)CCC1 + Cn1c(Nc2ccc(C(F)(F)F)cc2)nc2cc(Oc3ccnc(-c4ncc(C(F)(F)F)[nH]4)c3)ccc21 [CHIR265] (first compound 0.4 µM, partner dose 0.08 µM) | 91.2 | 191 | 124 | 148 | 258 | 88.2 | 23.7 | 93.4 |
| C[C@@H](N)c1ccc(C(=O)Nc2ccnc3[nH]ccc23)cc1 + C=C(c1ccc(C(=O)O)cc1)c1cc2c(cc1C)C(C)(C)CCC2(C)C [Bexarotene] (first compound 0.4 µM, partner dose 2 µM) | 307 | 119 | 94.4 | 139 | 63.2 | 231 | 27.8 | 297 |
| CN(c1ncccc1CNc1nc(Nc2ccc3c(c2)CC(=O)N3)ncc1C(F)(F)F)S(C)(=O)=O + Cn1c(Nc2ccc(C(F)(F)F)cc2)nc2cc(Oc3ccnc(-c4ncc(C(F)(F)F)[nH]4)c3)ccc21 [CHIR265] (first compound 0.08 µM, partner dose 0.08 µM) | 114 | 108 | 189 | 317 | 113 | 271 | 117 | 239 |

Complete entries from above. Values in the order: cleaved PARP positive nuclei fraction (MZ2-MEL) [%]	cleaved PARP positive nuclei fraction (MeWo) [%]	cleaved PARP positive nuclei fraction (RPMI7951) [%]	cleaved PARP positive nuclei fraction (RVH-421) [%]	cleaved PARP positive nuclei fraction (SkMel28) [%]	cleaved PARP positive nuclei fraction (SkMel2) [%]	cleaved PARP positive nuclei fraction (SkMel30) [%]	cleaved PARP positive nuclei fraction (UACC62) [%]
CCCCCCCCc1ccc(CCC(N)(CO)CO)cc1 [fingolimod] + Clc1ccc(Nc2nnc(Cc3ccncc3)c3ccccc23)cc1 [vatalanib] (first compound 2 µM, partner dose 2 µM) is entered as 136	142	182	159	45.2	100	55.4	113
C[C@@H](N)c1ccc(C(=O)Nc2ccnc3[nH]ccc23)cc1 + Nc1nc(F)nc2c1ncn2[C@@H]1O[C@H](CO)[C@@H](O)[C@@H]1O [fludarabine] (first compound 0.4 µM, partner dose 0.2 µM) is entered as 135	2790	36	43.8	399	2860	732	233
